Source: patent US20230279379A1, “METHODS AND MICROFLUIDIC DEVICE FOR PRODUCING EXTRACELLULAR VESICLES” (THE BOARD OF TRUSTEES OF THE UNIVERSITY OF ILLINOIS, priority 2022, published 2023)

System: Primary human MSCs
Assay: EV secretion per cell from MSCs on hydrogel substrates, nanoparticle tracking analysis
Type: cell-based
Conditions: 3 μM Mn2+ or 200 nM EMD 121974 treatment
Method: Cell Seeding on Hydrogels. Hydrogel discs were placed in ultra-low binding polystyrene well plates (Corning) to ensure cells attach to hydrogels and not the plate surface. Hydrogels were washed with Hank's buffered salt solution (HBSS, Thermo Fisher Scientific) for at least 3 days before seeding cells. Cells were seeded at a low density (25 cells/mm^2). After seeding, hydrogels were washed thoroughly to remove unattached cells. Drug treatments of 3 μM MnCl2 (Thermo Fisher Scientific), 200 nM EMD 121974 sold under the tradename Cilengitide® (Cayman) and 5 μM CK869 (Cayman) were applied during and after cell adhesion to substrates. […] After incubation at room temperature (RT) for 10 minutes, the samples were analyzed for live and dead cell number by flow cytometry. […]
To test the effect of substrate mechanics on EV secretion from MSCs, hydrogel substrates were engineered which were composed of alginate polymer conjugated with the cell adhesion peptide Arg-Gly-Asp (RGD) that binds primarily to αvβ3 and α5β1 integrins. […] After centrifugation of the medium at 10,000 g to remove cell, apoptotic, and larger particle fractions, particles remaining in the medium were analyzed by nanoparticle tracking analysis and normalized to the number of live adhered cells counted by flow cytometry (see Methods). […]

SMILES: [Cl][Mn][Cl] [MnCl2]
- particle size: Neither treatment significantly affected

SMILES: CC(C)[C@H]1C(=O)N[C@@H](CCCN=C(N)N)C(=O)NCC(=O)N[C@@H](CC(=O)O)C(=O)N[C@H](Cc2ccccc2)C(=O)N1C [EMD 121974]
- particle size: Neither treatment significantly affected
